This is an account of results in patent US11440969B2, “Use of human epididymis protein 4 (HE4) for assessing responsiveness of MUC 16-positive cancer treatment” (Genentech, Inc., priority 2016, dated 2022).

In this data set the test system is CA125. As to the kind of experiment: Serum CA125 in ovarian cancer patients treated with anti-MUC16-TDC. The format is in vivo, human.

B1: DMUC4064A (conjugate, chains of the INN, looked up)
VH: EVQLVESGGGLVQPGGSLRLSCAASGYSITNDYAWNWVRQAPGKGLEWVGYISYSGYTTYNPSLKSRFTISRDTSKNTLYLQMNSLRAEDTAVYYCARWTSGLDYWGQGTLVTVSS
VL: DIQMTQSPSSLSASVGDRVTITCKASDLIHNWLAWYQQKPGKAPKLLIYGATSLETGVPSRFSGSGSGTDFTLTISSLQPEDFATYYCQQYWTTPFTFGQGTKVEIK
modifications: vedotin payload (MMAE)
On to B1, for which the “dependence of maximal decrease in serum CA125 on dose” value (1.0-5.6 mg/kg) is “did not appear to be dependent on the dose”. In addition, the “reduction in serum CA125, on treatment greater than five months vs less than five months” value (two-tailed t-test p=0.0017) is “significantly lower”.
